# PubChem BioAssay AID504774, Drosophila RNAi Screening Center – 2011
# Aim: 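Fly genes whose loss alters survival after alkylation damage to DNA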 (primary screen)
# Cell system: Drosophila Kc167 cells
# Reagents: long dsRNA against Drosophila genes, about 0.25 µg dsRNA per well
# Duration: about 6 days: 3 days knock-down, then 3 days with or without MMS
# Challenge: methyl methanesulphonate 0.004% (w/v) for 3 days after knock-down
# Detection: 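Viability in wells given MMS, read as ATP luminescence, normalised by quantiles plate by plate and averaged across replicates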
# Reading the numbers: mean viability with MMS and viability with MMS: higher = more surviving cells after MMS
# The deposit covers about 23,000 reagents; below is an unselected part of those that have a named target and a result. 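Values are quantile-normalised luminescence on an arbitrary scale; higher means more cells surviving MMS.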 Names joined by + are all predicted targets of the reagent.
predicted target,DRSC id,mean viability with MMS,"viability with MMS, replicate 1","viability with MMS, replicate 2"
cactin (GeneID 33043),DRSC20576,3.39e6,3.86e6,3.82e6
Lectin-galC1 (GeneID 35216),DRSC03362,3.41e6,3.77e6,3.91e6
swa (GeneID 31580),DRSC18842,3.46e6,3.76e6,4.10e6
CG7737 (GeneID 36174),DRSC07033,3.60e6,4.09e6,4.06e6
dpr6 (GeneID 50296),DRSC09005,3.17e6,3.64e6,3.67e6
dpr6 (GeneID 50296),DRSC10162,3.61e6,4.02e6,4.13e6
dpr6 (GeneID 50296),DRSC10163,2.01e6,4.24e6,4.07e6
CG42361 (GeneID 37936),DRSC04391,3.57e6,4.15e6,3.95e6
Pp4-19C (GeneID 45031),DRSC20559,3.49e6,3.95e6,3.98e6
Pp4-19C (GeneID 45031),DRSC21251,3.44e6,3.98e6,3.83e6
Pp4-19C (GeneID 45031),DRSC23319,3.63e6,4.21e6,4.05e6
CG30356 (GeneID 246562),DRSC05119,3.55e6,3.98e6,4.08e6
CG6567 + CG4565,DRSC15599,3.56e6,4.08e6,4.00e6
Ubc4 (GeneID 39133),DRSC11312,3.48e6,3.95e6,3.93e6
Mtch (GeneID 38026),DRSC08679,3.50e6,3.97e6,3.96e6
Act57B (GeneID 37368),DRSC04042,3.55e6,3.75e6,4.14e6
CG11356 (GeneID 32178),DRSC19401,3.51e6,4.04e6,3.91e6
CG33937 (retired record) (GeneID 50008),DRSC15148,3.50e6,3.92e6,4.05e6
Axn (GeneID 43565),DRSC14120,3.99e6,4.63e6,4.53e6
l(2)41Ab (GeneID 5740691),DRSC21007,2.38e6,4.11e6,4.02e6
Teh2 (GeneID 38502),DRSC08458,3.49e6,3.95e6,3.96e6
CG4053 (GeneID 42070),DRSC15538,3.53e6,4.07e6,4.02e6
CG9458 (GeneID 41214),DRSC16495,3.60e6,4.10e6,4.02e6
SmD2 (GeneID 40781),DRSC12536,3.28e6,3.68e6,3.77e6
MED20 (GeneID 43952),DRSC03463,3.23e6,3.63e6,3.70e6
CG6230 (GeneID 34546),DRSC01989,3.52e6,4.08e6,3.91e6
CG5731 (GeneID 34355),DRSC02883,3.68e6,4.18e6,4.16e6
CG4382 (GeneID 34279),DRSC02743,3.67e6,4.20e6,4.13e6
CG5327 (GeneID 37138),DRSC06930,3.67e6,4.21e6,4.08e6
Acsl (GeneID 46068),DRSC07252,3.40e6,3.87e6,3.79e6
Sirt2 (GeneID 42414),DRSC15714,3.57e6,3.95e6,4.14e6
Cerk (GeneID 40640),DRSC12285,3.54e6,4.00e6,4.04e6
Cp190 (GeneID 41848),DRSC16607,3.41e6,3.82e6,3.87e6
Prosbeta4 (GeneID 34999),DRSC02603,3.37e6,3.79e6,3.81e6
CG7276 (GeneID 39668),DRSC10797,3.60e6,4.04e6,4.13e6
CG15203 (GeneID 32038),DRSC19650,3.69e6,4.08e6,4.23e6
Twdlbeta (GeneID 36265),DRSC07310,3.57e6,4.08e6,4.07e6
lz (GeneID 31883),DRSC18790,3.73e6,4.17e6,4.25e6
lz (GeneID 31883),DRSC22302,3.45e6,3.98e6,3.88e6
CG12795 (GeneID 33561),DRSC00354,3.66e6,4.22e6,4.03e6
CG10428 (GeneID 35150),DRSC02054,3.52e6,3.92e6,4.05e6
CG31205 (GeneID 318626),DRSC13438,3.53e6,4.04e6,3.98e6
CNT1 + CG13742,DRSC06413,3.67e6,4.14e6,4.09e6
eEF1alpha2 (GeneID 43736),DRSC14079,3.52e6,4.06e6,3.94e6
eEF1alpha2 (GeneID 43736),DRSC16658,3.36e6,3.79e6,3.84e6
side-VIII (GeneID 37310),DRSC05880,3.50e6,3.81e6,4.13e6
side-VIII (GeneID 37310),DRSC05883,2.94e6,3.52e6,3.62e6
side-VIII (GeneID 37310),DRSC06157,3.36e6,3.84e6,3.83e6
side-VIII (GeneID 37310),DRSC23187,3.60e6,4.05e6,4.14e6
CG15638 (GeneID 34768),DRSC01875,3.77e6,4.22e6,4.18e6
CR16735 (GeneID 10178810),DRSC15144,3.40e6,3.70e6,4.04e6
PRL-1 (GeneID 34952),DRSC03393,3.45e6,3.86e6,3.98e6
Rad23 (GeneID 43785),DRSC17167,3.46e6,4.06e6,3.80e6
CG12576 (GeneID 33135),DRSC20621,3.52e6,3.99e6,4.01e6
Or49a (GeneID 36350),DRSC07493,3.48e6,4.01e6,3.93e6
CG7094 (GeneID 35065),DRSC03005,3.42e6,3.90e6,3.86e6
CG7148 (GeneID 40432),DRSC11802,3.53e6,4.05e6,3.94e6
BckdhB (GeneID 3355069),DRSC21183,3.60e6,4.02e6,4.10e6
ci (GeneID 43767),DRSC17172,3.68e6,4.33e6,4.00e6
CG11964 (GeneID 41068),DRSC14447,3.56e6,4.11e6,4.00e6
CG13658 (GeneID 43055),DRSC14659,3.53e6,4.01e6,3.98e6
Ir56d (GeneID 37252),DRSC06590,3.51e6,3.91e6,4.04e6
CG11159 (GeneID 37341),DRSC06050,3.59e6,4.00e6,4.13e6
CG42843 (retired record) (GeneID 10178904),DRSC01118,3.66e6,4.08e6,4.18e6
CG42843 (retired record) (GeneID 10178904),DRSC02231,3.64e6,4.07e6,4.19e6
CG42843 (retired record) (GeneID 10178904),DRSC02233,3.60e6,4.11e6,4.06e6
path (GeneID 39106),DRSC10361,3.53e6,4.01e6,3.98e6
salr (GeneID 34568),DRSC03607,3.40e6,3.84e6,3.83e6
CBP (GeneID 31669),DRSC17746,3.26e6,3.87e6,4.11e6
CG5863 (GeneID 42096),DRSC15898,3.53e6,3.89e6,4.11e6
Sps2 (GeneID 34397),DRSC03441,3.57e6,4.02e6,4.08e6
stac (GeneID 43002),DRSC13693,3.58e6,4.07e6,4.04e6
stac (GeneID 43002),DRSC14392,3.39e6,3.81e6,3.79e6
stac (GeneID 43002),DRSC22197,3.41e6,3.87e6,3.95e6
CG7342 (GeneID 42335),DRSC16230,3.60e6,4.13e6,4.02e6
ReepB (GeneID 36569),DRSC07150,3.62e6,4.13e6,4.09e6
Tmf (GeneID 31629),DRSC18368,3.58e6,4.12e6,4.02e6
GlcAT-S (GeneID 34282),DRSC02731,3.52e6,4.11e6,3.88e6
CG2691 (GeneID 32320),DRSC19866,3.37e6,3.75e6,4.08e6
Inos (GeneID 35671),DRSC07655,3.49e6,3.90e6,4.05e6
CG13955 (GeneID 35968),DRSC06443,3.50e6,4.00e6,3.95e6
Prp38 (GeneID 35934),DRSC07060,3.27e6,3.69e6,3.75e6
FucT6 (GeneID 32122),DRSC19848,3.60e6,4.30e6,3.83e6
tin (GeneID 42536),DRSC17083,3.78e6,4.57e6,4.02e6
tin (GeneID 42536),DRSC22853,3.08e6,3.80e6,3.65e6
tin (GeneID 42536),DRSC23248,3.34e6,3.82e6,3.77e6
lectin-24Db (GeneID 53550),DRSC00553,3.47e6,4.04e6,3.75e6
